Data from the supplement of paper PMC12067093, “Discovery and optimisation of a covalent ligand for TRIM25 and its application to targeted protein ubiquitination” (Chemical Science, 2025).
The list shows a part of the results.

By UniProt entry, the sequences of proteins in these tests, tags left out. Where a name states a change or a piece, a line headed by the entry shows the natural chain unless it says otherwise.
UniProt Q9P0L0: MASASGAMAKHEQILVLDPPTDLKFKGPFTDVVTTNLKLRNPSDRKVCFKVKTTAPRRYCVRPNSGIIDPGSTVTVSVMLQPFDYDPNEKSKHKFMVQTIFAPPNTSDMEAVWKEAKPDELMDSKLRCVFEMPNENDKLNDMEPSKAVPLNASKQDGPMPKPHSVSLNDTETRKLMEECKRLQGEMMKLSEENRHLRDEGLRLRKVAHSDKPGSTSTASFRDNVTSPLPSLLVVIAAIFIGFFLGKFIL
UniProt Q9H269: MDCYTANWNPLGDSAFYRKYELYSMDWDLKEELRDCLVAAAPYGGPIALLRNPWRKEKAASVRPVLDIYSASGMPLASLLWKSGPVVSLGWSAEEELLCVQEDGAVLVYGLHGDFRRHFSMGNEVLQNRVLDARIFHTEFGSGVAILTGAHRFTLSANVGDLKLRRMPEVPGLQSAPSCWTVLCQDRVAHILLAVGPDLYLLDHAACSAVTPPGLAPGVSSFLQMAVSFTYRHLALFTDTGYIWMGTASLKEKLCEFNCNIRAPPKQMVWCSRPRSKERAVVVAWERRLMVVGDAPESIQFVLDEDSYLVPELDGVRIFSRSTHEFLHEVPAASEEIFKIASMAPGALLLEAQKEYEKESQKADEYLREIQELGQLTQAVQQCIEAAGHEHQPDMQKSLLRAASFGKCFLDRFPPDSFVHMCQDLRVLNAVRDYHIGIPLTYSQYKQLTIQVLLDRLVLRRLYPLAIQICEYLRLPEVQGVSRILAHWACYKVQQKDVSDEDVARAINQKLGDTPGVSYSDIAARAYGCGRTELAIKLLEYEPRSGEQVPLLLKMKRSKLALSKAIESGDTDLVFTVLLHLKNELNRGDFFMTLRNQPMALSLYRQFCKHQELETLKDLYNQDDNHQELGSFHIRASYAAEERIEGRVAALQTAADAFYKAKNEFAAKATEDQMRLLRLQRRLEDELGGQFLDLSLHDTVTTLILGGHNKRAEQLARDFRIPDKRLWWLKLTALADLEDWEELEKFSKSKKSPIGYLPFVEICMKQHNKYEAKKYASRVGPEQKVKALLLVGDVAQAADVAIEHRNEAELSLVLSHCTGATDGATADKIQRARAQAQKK
UniProt P49754: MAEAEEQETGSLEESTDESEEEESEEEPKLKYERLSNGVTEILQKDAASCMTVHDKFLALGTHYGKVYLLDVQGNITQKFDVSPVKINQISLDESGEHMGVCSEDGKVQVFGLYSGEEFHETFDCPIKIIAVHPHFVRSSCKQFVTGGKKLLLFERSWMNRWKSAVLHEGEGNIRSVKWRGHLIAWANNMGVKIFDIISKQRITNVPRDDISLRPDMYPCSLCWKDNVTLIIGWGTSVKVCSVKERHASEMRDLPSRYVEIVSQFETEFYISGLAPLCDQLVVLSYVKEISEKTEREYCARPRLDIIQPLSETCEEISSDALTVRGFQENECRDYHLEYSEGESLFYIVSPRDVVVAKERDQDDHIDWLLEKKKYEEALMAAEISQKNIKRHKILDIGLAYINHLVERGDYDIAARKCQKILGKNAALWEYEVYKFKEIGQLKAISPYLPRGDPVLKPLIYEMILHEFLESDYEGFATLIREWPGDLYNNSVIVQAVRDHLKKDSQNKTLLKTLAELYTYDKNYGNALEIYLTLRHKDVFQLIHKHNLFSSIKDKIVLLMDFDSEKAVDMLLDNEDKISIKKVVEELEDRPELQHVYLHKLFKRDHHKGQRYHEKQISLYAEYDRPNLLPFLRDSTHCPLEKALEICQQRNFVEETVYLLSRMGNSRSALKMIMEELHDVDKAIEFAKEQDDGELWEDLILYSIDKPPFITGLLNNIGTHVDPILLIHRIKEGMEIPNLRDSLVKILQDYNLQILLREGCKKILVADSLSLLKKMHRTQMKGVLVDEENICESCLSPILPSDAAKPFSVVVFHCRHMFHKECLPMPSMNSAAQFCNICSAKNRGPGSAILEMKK
UniProt Q12768: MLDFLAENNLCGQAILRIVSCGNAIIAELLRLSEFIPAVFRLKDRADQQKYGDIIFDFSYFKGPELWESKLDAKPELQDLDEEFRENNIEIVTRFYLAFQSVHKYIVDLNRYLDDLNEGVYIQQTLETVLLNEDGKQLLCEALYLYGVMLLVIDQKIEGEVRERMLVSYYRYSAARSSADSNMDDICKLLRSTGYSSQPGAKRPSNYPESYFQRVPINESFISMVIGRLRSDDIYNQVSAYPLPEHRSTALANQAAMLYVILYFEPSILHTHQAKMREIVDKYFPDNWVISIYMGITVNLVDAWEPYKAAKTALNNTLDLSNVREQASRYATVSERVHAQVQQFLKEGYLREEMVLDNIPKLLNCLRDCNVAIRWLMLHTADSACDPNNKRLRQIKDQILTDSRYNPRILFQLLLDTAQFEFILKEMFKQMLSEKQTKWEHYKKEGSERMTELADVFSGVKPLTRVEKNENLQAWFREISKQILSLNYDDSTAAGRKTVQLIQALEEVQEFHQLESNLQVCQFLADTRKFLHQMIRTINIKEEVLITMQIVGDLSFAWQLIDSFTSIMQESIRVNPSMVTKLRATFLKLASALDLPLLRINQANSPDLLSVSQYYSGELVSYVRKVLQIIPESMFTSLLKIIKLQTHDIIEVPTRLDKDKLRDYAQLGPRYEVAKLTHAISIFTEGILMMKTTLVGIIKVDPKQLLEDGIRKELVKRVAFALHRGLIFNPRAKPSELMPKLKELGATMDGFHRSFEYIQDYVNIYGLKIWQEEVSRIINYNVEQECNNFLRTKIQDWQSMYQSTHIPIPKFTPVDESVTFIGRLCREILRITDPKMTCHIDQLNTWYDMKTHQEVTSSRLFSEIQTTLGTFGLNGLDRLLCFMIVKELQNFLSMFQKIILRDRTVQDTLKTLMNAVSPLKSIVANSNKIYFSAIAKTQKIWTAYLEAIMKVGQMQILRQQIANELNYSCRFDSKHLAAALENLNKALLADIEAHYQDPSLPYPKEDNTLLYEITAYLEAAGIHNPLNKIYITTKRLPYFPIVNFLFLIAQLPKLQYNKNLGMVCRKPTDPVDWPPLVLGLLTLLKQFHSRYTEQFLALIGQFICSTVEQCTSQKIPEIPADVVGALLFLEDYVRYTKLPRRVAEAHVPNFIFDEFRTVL
UniProt Q9Y5J1: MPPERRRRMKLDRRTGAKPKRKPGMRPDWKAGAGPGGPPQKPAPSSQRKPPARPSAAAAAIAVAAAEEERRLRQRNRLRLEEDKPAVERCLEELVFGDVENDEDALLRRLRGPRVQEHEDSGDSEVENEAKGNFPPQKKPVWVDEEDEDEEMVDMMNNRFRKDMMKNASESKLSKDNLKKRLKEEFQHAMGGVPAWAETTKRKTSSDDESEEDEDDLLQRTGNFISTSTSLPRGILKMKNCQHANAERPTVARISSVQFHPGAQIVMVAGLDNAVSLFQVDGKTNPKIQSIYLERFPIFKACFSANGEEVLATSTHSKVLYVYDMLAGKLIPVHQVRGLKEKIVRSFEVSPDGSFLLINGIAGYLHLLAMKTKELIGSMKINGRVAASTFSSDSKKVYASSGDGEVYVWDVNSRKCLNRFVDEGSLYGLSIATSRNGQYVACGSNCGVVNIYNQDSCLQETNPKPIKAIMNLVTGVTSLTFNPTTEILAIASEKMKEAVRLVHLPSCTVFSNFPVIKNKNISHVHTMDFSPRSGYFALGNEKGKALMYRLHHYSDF
UniProt O75691: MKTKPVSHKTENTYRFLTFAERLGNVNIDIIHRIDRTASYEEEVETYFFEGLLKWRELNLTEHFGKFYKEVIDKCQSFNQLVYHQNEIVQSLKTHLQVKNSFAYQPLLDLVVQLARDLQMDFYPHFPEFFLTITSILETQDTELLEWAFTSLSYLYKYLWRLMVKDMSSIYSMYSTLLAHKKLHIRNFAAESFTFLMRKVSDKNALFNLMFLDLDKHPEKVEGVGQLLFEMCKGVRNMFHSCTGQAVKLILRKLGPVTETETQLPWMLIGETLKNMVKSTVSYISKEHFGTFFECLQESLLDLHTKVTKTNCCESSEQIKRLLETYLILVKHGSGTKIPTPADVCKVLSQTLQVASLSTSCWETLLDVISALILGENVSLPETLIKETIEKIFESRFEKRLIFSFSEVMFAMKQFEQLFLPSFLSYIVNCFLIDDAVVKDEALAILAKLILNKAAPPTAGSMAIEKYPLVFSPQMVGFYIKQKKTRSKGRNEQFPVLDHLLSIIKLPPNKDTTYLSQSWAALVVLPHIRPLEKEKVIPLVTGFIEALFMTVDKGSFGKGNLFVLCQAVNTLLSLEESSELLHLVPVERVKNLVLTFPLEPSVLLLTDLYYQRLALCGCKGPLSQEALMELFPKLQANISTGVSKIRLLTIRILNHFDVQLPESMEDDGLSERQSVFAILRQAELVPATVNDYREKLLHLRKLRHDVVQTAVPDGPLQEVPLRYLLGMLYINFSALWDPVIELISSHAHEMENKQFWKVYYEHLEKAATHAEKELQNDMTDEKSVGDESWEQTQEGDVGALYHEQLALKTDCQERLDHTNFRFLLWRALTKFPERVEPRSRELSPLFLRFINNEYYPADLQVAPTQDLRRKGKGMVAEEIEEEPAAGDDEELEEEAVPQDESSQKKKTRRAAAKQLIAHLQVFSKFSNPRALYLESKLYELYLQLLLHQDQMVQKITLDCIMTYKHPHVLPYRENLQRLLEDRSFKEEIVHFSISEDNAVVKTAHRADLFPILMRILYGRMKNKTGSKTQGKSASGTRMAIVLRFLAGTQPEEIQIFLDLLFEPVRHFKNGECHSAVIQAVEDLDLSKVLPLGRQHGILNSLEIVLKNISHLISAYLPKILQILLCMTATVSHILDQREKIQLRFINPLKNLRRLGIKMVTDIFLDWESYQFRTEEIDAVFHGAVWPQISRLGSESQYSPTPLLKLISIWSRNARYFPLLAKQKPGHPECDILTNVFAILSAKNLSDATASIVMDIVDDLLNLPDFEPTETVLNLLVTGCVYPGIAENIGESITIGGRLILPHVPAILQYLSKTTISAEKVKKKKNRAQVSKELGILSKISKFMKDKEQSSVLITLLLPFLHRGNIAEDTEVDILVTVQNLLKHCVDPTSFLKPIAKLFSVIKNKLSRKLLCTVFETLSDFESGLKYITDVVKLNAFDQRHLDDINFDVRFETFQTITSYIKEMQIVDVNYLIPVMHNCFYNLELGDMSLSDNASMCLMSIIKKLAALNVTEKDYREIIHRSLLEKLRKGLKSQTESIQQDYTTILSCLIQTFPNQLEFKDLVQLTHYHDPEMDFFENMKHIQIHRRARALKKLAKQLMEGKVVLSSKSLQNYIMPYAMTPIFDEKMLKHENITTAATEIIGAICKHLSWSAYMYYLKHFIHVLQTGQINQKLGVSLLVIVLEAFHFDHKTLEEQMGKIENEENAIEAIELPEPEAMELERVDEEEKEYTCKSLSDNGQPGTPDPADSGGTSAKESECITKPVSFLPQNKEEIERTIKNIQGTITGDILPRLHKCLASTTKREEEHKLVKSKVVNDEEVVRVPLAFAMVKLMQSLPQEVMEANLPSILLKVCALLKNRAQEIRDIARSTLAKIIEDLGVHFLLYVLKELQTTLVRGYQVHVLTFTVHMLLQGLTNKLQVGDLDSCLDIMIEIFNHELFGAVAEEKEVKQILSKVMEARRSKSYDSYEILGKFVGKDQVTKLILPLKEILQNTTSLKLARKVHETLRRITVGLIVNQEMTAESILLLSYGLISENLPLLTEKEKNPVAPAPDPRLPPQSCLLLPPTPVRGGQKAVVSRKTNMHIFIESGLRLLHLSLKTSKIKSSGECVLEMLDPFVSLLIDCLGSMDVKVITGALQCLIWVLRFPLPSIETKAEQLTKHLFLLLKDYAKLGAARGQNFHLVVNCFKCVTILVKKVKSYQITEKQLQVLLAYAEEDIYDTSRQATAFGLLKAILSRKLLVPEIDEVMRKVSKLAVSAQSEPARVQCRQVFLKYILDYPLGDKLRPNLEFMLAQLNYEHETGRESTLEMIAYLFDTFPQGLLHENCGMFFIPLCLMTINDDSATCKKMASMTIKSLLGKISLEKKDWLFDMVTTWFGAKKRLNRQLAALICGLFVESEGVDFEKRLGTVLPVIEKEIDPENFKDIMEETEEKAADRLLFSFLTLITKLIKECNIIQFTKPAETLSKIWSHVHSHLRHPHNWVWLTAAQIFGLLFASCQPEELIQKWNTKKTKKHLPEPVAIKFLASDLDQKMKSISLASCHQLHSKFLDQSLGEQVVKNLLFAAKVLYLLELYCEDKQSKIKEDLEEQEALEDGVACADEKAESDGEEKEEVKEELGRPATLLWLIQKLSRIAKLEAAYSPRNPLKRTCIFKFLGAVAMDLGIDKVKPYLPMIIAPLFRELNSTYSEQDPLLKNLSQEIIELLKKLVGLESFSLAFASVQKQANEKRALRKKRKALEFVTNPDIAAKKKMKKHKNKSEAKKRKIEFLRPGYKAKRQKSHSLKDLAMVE

Compound: Cc1cc(ccc1-c1ccccc1)C(=O)N1CCCN(CC1)C(=O)CCl [compound 10]
Assay: probe-labelled cysteine peptide fold change vs DMSO (competition) (log2 fold change); higher = less target engagement (more negative = stronger competition)
Details: THP-1, incubation time: 4 h
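Also: competitive profiling in live THP-1 cells: cysteine peptides tagged with an iodoacetamide desthiobiotin (IA-DTB) probe, intensity after compound treatment relative to DMSO-treated cells.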

Target | probe-labelled cysteine peptide fold change (10 µM) | probe-labelled cysteine peptide fold change (50 µM)
VARS_P26640_1185_CSIHLQLQGLVDPAR (UniProt P26640) | -0.0104 | -0.028
VPS13B_Q7Z7G8_3937_VACDVEVDGVR (UniProt Q7Z7G8) | -0.368 | -0.626
VRK1_Q99986_220_RCHDGTIEFTSIDAHNGVAPSR (UniProt Q99986) | -0.347 | 0.0818
VPS28_Q9UK41_96_QVQGSEISSIDEFCR (UniProt Q9UK41) | 0.0424 | -0.0686
VAPA_Q9P0L0_128_CVFEMPNENDK (UniProt Q9P0L0) | -0.217 | -0.121
VPS11_Q9H270_586_EAPGCR (UniProt Q9H270) | 0.293 | 0.578
VCP_P55072_691_MTNGFSGADLTEICQR (UniProt P55072) | 0.351 | -0.0625
VPS4B_O75351_240_ENKPSIIFIDEIDSLCGSR (UniProt O75351) | -0.193 | 0.0604
VPS51_Q9UID3_226_AIQDDCQVITAR (UniProt Q9UID3) | -0.0982 | -0.205
UVRAG_Q9P2Y5_186_TILLQVDQNCVR (UniProt Q9P2Y5) | -0.089 | -0.0238
VLDLR_P98155_97_CDGDPDCEDGSDESPEQCHMR (UniProt P98155) | 0.0414 | -0.483
WASHC4_Q2M389_659_HLESYEILLDCYDK (UniProt Q2M389) | 0.156 | 0.271
VPS16_Q9H269_271_QMVWCSRPR (UniProt Q9H269) | 0.108 | -0.255
VPS4A_Q9UN37_233_PSIIFIDEVDSLCGSR (UniProt Q9UN37) | 0.251 | -0.276
VIPAS39_Q9H9C1_446_CHDVVIDTYR (UniProt Q9H9C1) | 0.117 | -0.0289
VRK3_Q8IV63_244_LYSTPLLAIPTCMGFGVHQDK (UniProt Q8IV63) | -0.0457 | -0.143
UTRN_P46939_2098_HQLDEIICWLTK (UniProt P46939) | 0.0675 | -0.109
VLDLR_P98155_127_IHEISCGAHSTQCIPVSWR (UniProt P98155) | -0.0912 | -0.0243
VLDLR_P98155_367_ECHINECLVNNGGCSHICK (UniProt P98155) | 0.0844 | -0.17
VCPIP1_Q96JH7_538_DVLVPDYGMSNLTACNWCHGTSVR (UniProt Q96JH7) | 0.101 | -0.297
VKORC1L1_Q8N0U8_50_ALCDLGPWVK (UniProt Q8N0U8) | -0.156 | -0.0504

Target | probe-labelled cysteine peptide fold change (10 µM) | probe-labelled cysteine peptide fold change (50 µM)
VPS16_Q9H269_817_NEAELSLVLSHCTGATDGATADK (UniProt Q9H269) | 0.271 | 0.222
USP9Y_O00507_1729_ICQGCPHRYECEESFTTLNVDIR (UniProt O00507) | -0.0335 | -0.101
WASHC4_Q2M389_1031_NFYIIVPPLTLNFVEHSISCK (UniProt Q2M389) | 0.0143 | 0.398
VPS13A_Q96RL7_582_CIIEAEPLEIIYDAR (UniProt Q96RL7) | 0.185 | 0.463
VPS13C_Q709C8_2276_GIEHSLIEENCGVVVESIQVTLECGLGHR (UniProt Q709C8) | -0.227 | -0.117
VPS39_Q96JC1_467_CYLHTNVALVAPLLR (UniProt Q96JC1) | 0.218 | 0.168
VCPIP1_Q96JH7_469_CLLCGALSELHVPPEWLAPGGK (UniProt Q96JH7) | 0.17 | -0.568
UTRN_P46939_2986_EVAGPTEMCDQR (UniProt P46939) | -0.136 | 0.0947
WARS_P23381_274_GIFGFTDSDCIGK (UniProt P23381) | -0.0361 | 0.173
VPS13C_Q709C8_2289_GIEHSLIEENCGVVVESIQVTLECGLGHR (UniProt Q709C8) | -0.105 | -0.0661
VPS8_Q8N3P4_512_QDCLTEALALAWSFHEGK (UniProt Q8N3P4) | 0.0465 | 0.27
VPS41_P49754_638_DSTHCPLEK (UniProt P49754) | -0.172 | -0.152
VCP_P55072_209_EDEEESLNEVGYDDIGGCRK (UniProt P55072) | -0.234 | 0.0631
VPS16_Q9H269_763_KSPIGYLPFVEICMK (UniProt Q9H269) | -0.0596 | -0.435
VPS33A_Q96AX1_163_ECYLEGDQTSLYHAAK (UniProt Q96AX1) | -0.0226 | 0.253
VPS39_Q96JC1_723_MAEEYCHK (UniProt Q96JC1) | 0.106 | -0.084
VPS37A_Q8NEZ2_375_TICHCR (UniProt Q8NEZ2) | 0.41 | 1.08
VPS13C_Q709C8_2588_CQLFIQPAGILEHQYK (UniProt Q709C8) | 0.248 | 0.197
USP9Y_O00507_1773_GDLLEGANAYHCEK (UniProt O00507) | 0.00151 | -0.211
VPS13C_Q709C8_1617_CNIADIK (UniProt Q709C8) | -0.0556 | -0.131
WASHC5_Q12768_11_MLDFLAENNLCGQAILR (UniProt Q12768) | 0.00121 | -0.0122

Target | probe-labelled cysteine peptide fold change (10 µM) | probe-labelled cysteine peptide fold change (50 µM)
VAPB_O95292_121_CVFELPAENDKPHDVEINK (UniProt O95292) | -0.285 | -0.0606
WAPL_Q7Z5K2_133_CFPLEDTLLGK (UniProt Q7Z5K2) | -0.425 | -0.102
UTRN_P46939_447_METCPLDDDVK (UniProt P46939) | -0.0867 | -0.345
VPS18_Q9P253_741_QCADLPEEDEELR (UniProt Q9P253) | 0.179 | 0.173
VPS13D_Q5THJ4_3722_LTCGLHGLVVQAK (UniProt Q5THJ4) | -0.0396 | 0.0236
VPS72_Q15906_292_EVCPVTHRPALYRDPVTDIPYATAR (UniProt Q15906) | 0.0991 | 0.144
VAV1_P15498_71_EVNLRPQMSQFLCLK (UniProt P15498) | -0.258 | -0.0872
VPS53_Q5VIR6_242_DACLVANILDPR (UniProt Q5VIR6) | 0.146 | 0.451
WASHC5_Q12768_21_IVSCGNAIIAELLR (UniProt Q12768) | -0.116 | 0.234
WAPL_Q7Z5K2_1170_FLSFMNLTCAVGTTGQK (UniProt Q7Z5K2) | -0.173 | -0.476
VPS16_Q9H269_36_EELRDCLVAAAPYGGPIALLR (UniProt Q9H269) | 0.339 | 0.551
VCP_P55072_572_QAAPCVLFFDELDSIAK (UniProt P55072) | 0.0188 | -0.0785
VARS_P26640_41_ICLQPPPTSR (UniProt P26640) | 0.0632 | -0.101
VPS35_Q96QK1_137_DLVEMCR (UniProt Q96QK1) | 0.0809 | 0.00884
VPS18_Q9P253_947_ADLDELVAAECVYCGELMIR (UniProt Q9P253) | -0.147 | 0.437
UTP18_Q9Y5J1_90_CLEELVFGDVENDEDALLRR (UniProt Q9Y5J1) | 0.219 | -0.062
VASP_P50552_7_SETVICSSR (UniProt P50552) | 0.589 | 0.839
VTA1_Q9NP79_87_QLGDNEAITQEIVGCAHLENYALK (UniProt Q9NP79) | 0.0147 | 0.136
VPS52_Q8N1B4_119_DYIQESENIASLHNQITACDAVLER (UniProt Q8N1B4) | 0.338 | 0.121
VPS41_P49754_332_GFQENECR (UniProt P49754) | -0.18 | 0.157
UTP20_O75691_242_NMFHSCTGQAVK (UniProt O75691) | -0.122 | 0.227

Target | probe-labelled cysteine peptide fold change (10 µM) | probe-labelled cysteine peptide fold change (50 µM)
VIRMA_Q69YN4_557_CHFYEVLSEIKR (UniProt Q69YN4) | 0.0494 | 0.205
VAV1_P15498_794_YDFCAR (UniProt P15498) | -0.169 | 0.781
VCP_P55072_209_EDEEESLNEVGYDDIGGCR (UniProt P55072) | -0.0294 | -0.107
USP9X_Q93008_471_LAWDFSPEQLDHLFDCFK (UniProt Q93008) | 0.316 | 0.635
VPS16_Q9H269_408+422_CFLDRFPPDSFVHMCQDLR (UniProt Q9H269) | 0.0284 | -0.126
UTP20_O75691_2571_VLYLLELYCEDK (UniProt O75691) | 0.0446 | 0.184
VIM_P08670_328_QVQSLTCEVDALK (UniProt P08670) | -0.154 | -0.0332
UTP20_O75691_616_LALCGCK (UniProt O75691) | -0.00945 | -0.0191
VLDLR_P98155_108_CDGDPDCEDGSDESPEQCHMR (UniProt P98155) | -0.0653 | -0.558
VCP_P55072_174+184_VVETDPSPYCIVAPDTVIHCEGEPIKR (UniProt P55072) | -0.472 | 0.096
USP9Y_O00507_1910_FDDGDVTECK (UniProt O00507) | -0.232 | 0.0297
UTP6_Q9NYH9_566_EELNHPLGRPENCGQIYWR (UniProt Q9NYH9) | 0.0173 | 0.186
UTP18_Q9Y5J1_507_LVHLPSCTVFSNFPVIK (UniProt Q9Y5J1) | 0.0471 | -0.0312
VAMP7_P51809_21_HAWCGGNFLEVTEQILAK (UniProt P51809) | -0.0461 | 0.185
VPS39_Q96JC1_877_YPNGVVVHYFCSK (UniProt Q96JC1) | 0.156 | 0.168
VCP_P55072_105_LGDVISIQPCPDVK (UniProt P55072) | -0.0467 | 0.0133
UTP23_Q9BRU9_207_ISGPNPLSCLK (UniProt Q9BRU9) | -0.0524 | -0.323
VCPIP1_Q96JH7_541_DVLVPDYGMSNLTACNWCHGTSVR (UniProt Q96JH7) | -0.0935 | -0.482
VPS35_Q96QK1_640_CFSEENHEPLR (UniProt Q96QK1) | 0.0691 | 0.135
WARS2_Q9UGM6_102_QSILDMTAVLLACGINPEK (UniProt Q9UGM6) | 0.195 | 0.614
VAPA_Q9P0L0_179_KLMEECK (UniProt Q9P0L0) | -0.0535 | -0.275
